Measured values as given in publication doi:10.1101/2023.08.31.555690.
Where two headings read alike, the source gives them in different places. The exact form of at least one protein or probe is not confirmed. At least one verdict was read from the data and is not stated in words by the source.

How the values were obtained:
Assay in all cases: EMSA
[1] = tested on: CarolAnn gp44 (phage CarolAnn (mycophage))
[2] = tested on: Sbash gp30 (Mycobacterium phage Sbash (mycophage))
[3] = tested on: Toast gp42 (phage Toast (mycophage))

Sequence | binding result [1] | binding result [2] | binding result [3] | also measured
CATTATCACCGCCAGAGGTAAAATAGTCAACACGCACGGTGTTAGAT (double strand) [Rex_OR1-OR2] | binds | binds | binds | 
CATACGTCGAGTCTGACAGAAACATTCGGCAAACTTTCGAACTGGGTGGCAAACATCATCAGTGTAATTTCCTCCGACTATTGGGTCTTAGGTCAAGAAACCCCTGGTAGTCCAGGTTTGCCGTTTTAGGAAAAGTTTCGGCATGTCGGTTTGCCGACCCGAATCTACGGTGTATCTTCGGGGATATG (double strand) [Sbash_OR1-OR2-OR3] |  | binds |  | 
CATGCCAGGATATTCGCTACAAATAGTACGTGATACGACATCGCGAT (double strand) [Rex_OR1-OR2_Scram] |  |  |  | binding result ([1]; profile unchanged vs OR1-OR2): binds; binding result ([2]; profile unchanged vs OR1-OR2): binds; binding result ([3]; profile unchanged vs OR1-OR2): binds
CACCGACCCGGCTACCGCTTAACGCGTGTCGTGTCGCACCTGCCGTCTACCAATGACTACCGGGGATTGTGCCTCATATCCGCAGGCTGCGGAACTACAGGGCTGTAATTTCTTGACGAGCGTCTACCTGCTGCGGAAGAATCATCCGCAGCCTATTGACACCACCCCGTCTACCAGGAGAGACTCATG (double strand) [Toast_OR1-OR2-OR3] |  |  | binds | 
CATGGATTGAGGTTCAACCGCCCGTCCTTCGGCACGCAACGCGCAACGGAACCTATGCGGTTACCGCGTTTGCTCGCTCCGGCTTCCTTCTCCGTGTACCAACTTGTCCCCCGGATTGTGCCGCATACACGCAGGCTGCGGAACTACCGCCGTGTAATTCATTGCCATGCGTGTACCCACCATGCAAGAATCATACGCAGTTGCTTGACACCCAGCCGGTTACCGAGGAGGATCAATGGCGAGCTACACACGCTGGCCGAAGGGAAGTTGGATG (double strand) [CarolAnn_OR1-OR2-OR3] | binds |  |  | 
